Data on eight targets can be found in the supplement of paper PMC12819154, “High-throughput peptide-centric local stability assay extends protein–ligand identification to membrane proteins, tissues and bacteria” (Nature Structural & Molecular Biology, 2025).

Protein sequences, listed by entry. Tags and fused reporters are not part of them. Lines headed by an entry give the natural chain unless they say otherwise; changes in a name come on top.
UniProt Q14451, whole entry: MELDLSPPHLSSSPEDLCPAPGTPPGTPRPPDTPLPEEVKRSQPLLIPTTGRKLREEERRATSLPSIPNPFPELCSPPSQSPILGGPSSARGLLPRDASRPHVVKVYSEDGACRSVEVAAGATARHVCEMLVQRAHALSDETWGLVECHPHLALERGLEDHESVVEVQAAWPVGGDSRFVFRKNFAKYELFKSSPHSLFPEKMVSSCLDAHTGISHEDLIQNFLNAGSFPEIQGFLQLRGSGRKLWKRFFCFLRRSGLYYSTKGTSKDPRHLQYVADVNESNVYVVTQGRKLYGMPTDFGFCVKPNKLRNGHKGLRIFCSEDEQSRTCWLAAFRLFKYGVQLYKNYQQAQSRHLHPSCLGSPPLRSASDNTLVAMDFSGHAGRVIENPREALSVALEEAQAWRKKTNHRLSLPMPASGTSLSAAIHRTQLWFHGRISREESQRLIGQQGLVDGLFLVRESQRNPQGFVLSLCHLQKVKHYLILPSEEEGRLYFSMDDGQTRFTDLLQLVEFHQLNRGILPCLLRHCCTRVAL
UniProt Q14689: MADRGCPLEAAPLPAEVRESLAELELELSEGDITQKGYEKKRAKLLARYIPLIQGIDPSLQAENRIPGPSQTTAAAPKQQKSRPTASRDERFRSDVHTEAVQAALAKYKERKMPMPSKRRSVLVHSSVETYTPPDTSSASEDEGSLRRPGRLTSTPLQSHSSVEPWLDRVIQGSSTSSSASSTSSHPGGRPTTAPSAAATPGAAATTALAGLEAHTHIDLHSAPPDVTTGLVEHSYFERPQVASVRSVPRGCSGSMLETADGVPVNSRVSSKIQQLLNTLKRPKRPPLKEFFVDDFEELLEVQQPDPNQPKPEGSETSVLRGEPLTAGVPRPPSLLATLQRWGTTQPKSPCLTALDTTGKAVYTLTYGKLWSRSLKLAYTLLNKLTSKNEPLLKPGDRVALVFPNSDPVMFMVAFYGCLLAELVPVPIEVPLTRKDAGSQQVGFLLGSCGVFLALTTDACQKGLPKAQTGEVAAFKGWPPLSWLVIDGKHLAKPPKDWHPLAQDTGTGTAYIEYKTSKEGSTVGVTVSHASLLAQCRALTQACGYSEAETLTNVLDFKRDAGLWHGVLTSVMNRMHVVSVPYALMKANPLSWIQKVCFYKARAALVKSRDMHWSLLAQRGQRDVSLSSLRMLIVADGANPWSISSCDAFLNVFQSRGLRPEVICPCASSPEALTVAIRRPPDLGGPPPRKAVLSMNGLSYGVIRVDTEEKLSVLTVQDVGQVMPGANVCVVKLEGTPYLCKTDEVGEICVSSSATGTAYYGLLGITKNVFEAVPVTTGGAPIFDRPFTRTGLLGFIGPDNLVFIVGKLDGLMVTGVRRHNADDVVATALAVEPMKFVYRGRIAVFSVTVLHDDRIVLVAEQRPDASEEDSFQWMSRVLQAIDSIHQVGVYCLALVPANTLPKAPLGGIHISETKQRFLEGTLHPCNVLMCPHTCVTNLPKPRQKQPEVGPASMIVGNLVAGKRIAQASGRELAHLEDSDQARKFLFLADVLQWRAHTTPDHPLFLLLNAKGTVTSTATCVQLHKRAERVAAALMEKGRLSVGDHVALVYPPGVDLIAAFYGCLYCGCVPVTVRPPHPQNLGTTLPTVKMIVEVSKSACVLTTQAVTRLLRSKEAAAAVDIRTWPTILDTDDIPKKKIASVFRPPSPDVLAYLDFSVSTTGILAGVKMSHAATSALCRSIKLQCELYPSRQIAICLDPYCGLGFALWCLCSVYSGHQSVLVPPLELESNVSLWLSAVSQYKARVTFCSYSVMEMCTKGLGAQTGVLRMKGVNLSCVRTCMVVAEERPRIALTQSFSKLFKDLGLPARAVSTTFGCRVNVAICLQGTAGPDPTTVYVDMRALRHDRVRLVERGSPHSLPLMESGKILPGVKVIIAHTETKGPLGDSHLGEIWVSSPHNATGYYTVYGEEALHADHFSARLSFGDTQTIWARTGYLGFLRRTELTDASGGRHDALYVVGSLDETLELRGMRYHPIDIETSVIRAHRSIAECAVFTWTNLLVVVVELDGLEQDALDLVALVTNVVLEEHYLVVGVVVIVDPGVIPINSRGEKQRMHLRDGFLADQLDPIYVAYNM
UniProt Q14978: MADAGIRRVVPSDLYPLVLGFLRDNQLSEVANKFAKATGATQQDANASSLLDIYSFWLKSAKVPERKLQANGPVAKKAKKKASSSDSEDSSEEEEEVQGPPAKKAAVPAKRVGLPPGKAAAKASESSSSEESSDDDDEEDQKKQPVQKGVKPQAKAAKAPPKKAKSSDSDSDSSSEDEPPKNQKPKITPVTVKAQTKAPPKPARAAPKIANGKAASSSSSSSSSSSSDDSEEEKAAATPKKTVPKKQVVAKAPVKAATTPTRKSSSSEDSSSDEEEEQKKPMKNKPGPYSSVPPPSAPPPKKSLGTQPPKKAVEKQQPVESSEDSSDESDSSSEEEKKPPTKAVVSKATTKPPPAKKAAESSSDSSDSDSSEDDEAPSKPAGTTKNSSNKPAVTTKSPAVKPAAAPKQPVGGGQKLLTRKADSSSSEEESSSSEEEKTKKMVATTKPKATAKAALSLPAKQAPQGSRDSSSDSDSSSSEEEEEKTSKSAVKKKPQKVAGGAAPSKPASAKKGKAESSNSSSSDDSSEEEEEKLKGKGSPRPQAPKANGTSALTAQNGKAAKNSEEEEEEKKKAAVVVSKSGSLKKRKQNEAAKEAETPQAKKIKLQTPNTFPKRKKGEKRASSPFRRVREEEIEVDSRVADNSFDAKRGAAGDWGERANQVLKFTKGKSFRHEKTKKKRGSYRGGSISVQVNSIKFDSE
UniProt Q14590: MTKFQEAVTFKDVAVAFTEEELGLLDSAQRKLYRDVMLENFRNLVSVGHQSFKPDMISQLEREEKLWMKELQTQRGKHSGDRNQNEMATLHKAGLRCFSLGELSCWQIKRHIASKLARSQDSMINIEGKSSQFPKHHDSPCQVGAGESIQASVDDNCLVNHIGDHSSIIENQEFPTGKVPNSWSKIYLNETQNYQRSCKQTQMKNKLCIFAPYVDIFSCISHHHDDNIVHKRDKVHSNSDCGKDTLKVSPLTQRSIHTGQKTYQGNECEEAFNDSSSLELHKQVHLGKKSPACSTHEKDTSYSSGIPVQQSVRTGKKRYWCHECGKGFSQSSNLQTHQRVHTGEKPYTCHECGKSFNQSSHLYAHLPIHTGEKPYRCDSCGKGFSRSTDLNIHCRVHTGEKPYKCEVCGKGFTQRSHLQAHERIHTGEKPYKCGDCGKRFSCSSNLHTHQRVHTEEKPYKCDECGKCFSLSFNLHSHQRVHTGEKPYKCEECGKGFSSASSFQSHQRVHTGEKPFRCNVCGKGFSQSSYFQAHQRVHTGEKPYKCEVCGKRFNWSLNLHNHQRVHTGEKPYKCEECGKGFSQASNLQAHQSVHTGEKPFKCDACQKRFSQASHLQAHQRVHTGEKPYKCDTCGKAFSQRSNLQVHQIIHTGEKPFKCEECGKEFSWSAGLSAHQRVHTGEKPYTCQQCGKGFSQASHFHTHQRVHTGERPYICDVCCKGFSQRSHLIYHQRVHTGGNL
UniProt Q14119: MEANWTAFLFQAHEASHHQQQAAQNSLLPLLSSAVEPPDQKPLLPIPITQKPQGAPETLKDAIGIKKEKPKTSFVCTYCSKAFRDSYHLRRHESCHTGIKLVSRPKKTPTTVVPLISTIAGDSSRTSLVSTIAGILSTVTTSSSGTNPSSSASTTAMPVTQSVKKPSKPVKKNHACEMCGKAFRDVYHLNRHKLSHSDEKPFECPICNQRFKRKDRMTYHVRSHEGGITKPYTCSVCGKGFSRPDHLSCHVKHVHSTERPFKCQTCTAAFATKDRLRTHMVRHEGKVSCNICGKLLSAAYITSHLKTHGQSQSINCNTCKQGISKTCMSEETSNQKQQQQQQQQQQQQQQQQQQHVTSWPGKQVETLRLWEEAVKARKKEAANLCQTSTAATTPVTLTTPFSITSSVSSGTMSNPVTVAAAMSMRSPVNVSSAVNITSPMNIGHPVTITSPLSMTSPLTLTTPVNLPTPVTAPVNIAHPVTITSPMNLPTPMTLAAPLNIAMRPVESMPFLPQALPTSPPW
UniProt Q14318: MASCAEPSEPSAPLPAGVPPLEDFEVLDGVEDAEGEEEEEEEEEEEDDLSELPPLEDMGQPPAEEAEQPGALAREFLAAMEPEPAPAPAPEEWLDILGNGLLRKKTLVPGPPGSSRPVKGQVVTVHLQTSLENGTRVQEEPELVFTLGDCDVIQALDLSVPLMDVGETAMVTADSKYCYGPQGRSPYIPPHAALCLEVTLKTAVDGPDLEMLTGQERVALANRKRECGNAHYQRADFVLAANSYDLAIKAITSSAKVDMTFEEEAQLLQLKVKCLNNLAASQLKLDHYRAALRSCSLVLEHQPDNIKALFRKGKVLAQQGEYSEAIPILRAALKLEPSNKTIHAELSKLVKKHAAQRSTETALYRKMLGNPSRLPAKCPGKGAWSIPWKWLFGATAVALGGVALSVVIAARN
UniProt Q14168: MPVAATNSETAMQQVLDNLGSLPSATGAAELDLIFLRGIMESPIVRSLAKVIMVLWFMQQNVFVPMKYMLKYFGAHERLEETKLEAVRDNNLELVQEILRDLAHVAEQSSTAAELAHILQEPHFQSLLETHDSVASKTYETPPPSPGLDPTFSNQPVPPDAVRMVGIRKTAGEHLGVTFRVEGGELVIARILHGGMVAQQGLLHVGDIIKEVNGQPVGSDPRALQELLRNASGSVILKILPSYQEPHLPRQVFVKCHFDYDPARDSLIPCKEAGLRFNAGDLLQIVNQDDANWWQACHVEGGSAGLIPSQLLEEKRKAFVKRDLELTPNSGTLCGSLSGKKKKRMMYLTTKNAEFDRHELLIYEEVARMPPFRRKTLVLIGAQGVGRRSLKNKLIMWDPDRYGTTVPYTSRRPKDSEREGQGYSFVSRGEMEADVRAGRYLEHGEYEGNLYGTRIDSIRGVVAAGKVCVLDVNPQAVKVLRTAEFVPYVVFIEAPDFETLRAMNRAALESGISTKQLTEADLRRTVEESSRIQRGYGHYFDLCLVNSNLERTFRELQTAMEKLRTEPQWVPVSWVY
UniProt Q14320: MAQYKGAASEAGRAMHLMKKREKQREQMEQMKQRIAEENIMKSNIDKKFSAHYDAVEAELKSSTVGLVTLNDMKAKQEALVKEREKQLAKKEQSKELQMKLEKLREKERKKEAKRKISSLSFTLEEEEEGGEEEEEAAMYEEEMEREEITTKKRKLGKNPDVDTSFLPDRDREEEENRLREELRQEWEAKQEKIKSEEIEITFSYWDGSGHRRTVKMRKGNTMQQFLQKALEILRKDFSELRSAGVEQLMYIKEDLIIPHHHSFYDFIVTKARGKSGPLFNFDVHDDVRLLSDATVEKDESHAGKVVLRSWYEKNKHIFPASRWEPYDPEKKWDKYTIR

The list shows a part of the results. Most entries show no effect beyond the scatter of the controls.

Compound in this assay: CN[C@@H]1C[C@H]2O[C@@](C)([C@@H]1OC)n1c3ccccc3c3c4c(c5c6ccccc6n2c5c31)C(=O)NC4 [staurosporine]
Put plainly: log2 fold change of tryptic peptide abundance, ligand vs vehicle (limited proteolysis) (log2 ratio); higher = more trypsin-susceptible (destabilized). The note with it: ligand concentration: 20 uM; sample: K562 cleared lysate; digestion: 4 min, 22 C (HT-PELSA RT4min, Orbitrap Astral).
As to “UniProt Q14451 (peptide sequence: SQPLLIPTTGR, peptide start residue: 42)”, the log2 fold change stood at 0.264.
Regarding “DIP2A (peptide sequence: ELAHLEDSDQAR, peptide start residue: 971) (UniProt Q14689)”, the log2 fold change is 0.631.
For the target “NOLC1 (peptide sequence: GGSISVQVNSIK, peptide start residue: 684) (UniProt Q14978)”, the log2 fold change turned out to be 0.331.
Consider “UniProt Q14590 (peptide sequence: SHLQAHER, peptide start residue: 416)”, for which the log2 fold change was 0.246.
Take “VEZF1 (peptide sequence: TSFVCTYCSK, peptide start residue: 72) (UniProt Q14119)”: the log2 fold change came out at 0.206.
In the case of “FKBP8 (peptide sequence: GKVLAQQGEYSEAIPILR, peptide start residue: 313) (UniProt Q14318)”, the log2 fold change is -0.492.
Turning to “MPP2 (peptide sequence: TLVLIGAQGVGR, peptide start residue: 340) (UniProt Q14168)”, the log2 fold change was determined as 0.304.
As for “FAM50A (peptide sequence: SAGVEQLMYIK, peptide start residue: 243) (UniProt Q14320)”, the log2 fold change turned out to be 0.582.
